Laboratory results: patent US20240033282A1, “METHOD FOR IDENTIFYING AND/OR FOR OBTAINING AN ACTIVE SUBSTANCE FOR THE TREATMENT AND THERAPY OF FAMILIAL AMYOTROPHIC LATERAL SCLEROSIS, AND USE OF AN ACTIVE SUBSTANCE FOR THE TREATMENT OF THIS DISEASE” (Forschungszentrum Juelich GmbH, priority 2020, published 2024)
At least one compound was matched to its structure with a doubt left.

Test system: uptake of SOD1 aggregates into neuro-2a cells
Assay: flow cytometric determination of the uptake of fluorescently labeled SOD1 aggregates into neuro-2a cells
Assay type: cell-based
Conditions: flow cytometry, FIG. 3

COC[C@H]1OC(=O)c2coc3c2[C@@]1(C)C1=C(C3=O)[C@@H]2CCC(=O)[C@@]2(C)C[C@H]1OC(C)=O [wortmannin]
uptake of fluorescently labeled SOD1 aggregates after treatment with endocytosis inhibitors: reduced the uptake of SOD1 aggregates significantly
